Reference: the supplement of paper PMC7666118
This is one part of the list.

Protein sequences, listed by entry. Tags and fused reporters are not part of them. Lines headed by an entry give the natural chain unless they say otherwise; changes in a name come on top.
UniProt Q9Y6G9, whole entry: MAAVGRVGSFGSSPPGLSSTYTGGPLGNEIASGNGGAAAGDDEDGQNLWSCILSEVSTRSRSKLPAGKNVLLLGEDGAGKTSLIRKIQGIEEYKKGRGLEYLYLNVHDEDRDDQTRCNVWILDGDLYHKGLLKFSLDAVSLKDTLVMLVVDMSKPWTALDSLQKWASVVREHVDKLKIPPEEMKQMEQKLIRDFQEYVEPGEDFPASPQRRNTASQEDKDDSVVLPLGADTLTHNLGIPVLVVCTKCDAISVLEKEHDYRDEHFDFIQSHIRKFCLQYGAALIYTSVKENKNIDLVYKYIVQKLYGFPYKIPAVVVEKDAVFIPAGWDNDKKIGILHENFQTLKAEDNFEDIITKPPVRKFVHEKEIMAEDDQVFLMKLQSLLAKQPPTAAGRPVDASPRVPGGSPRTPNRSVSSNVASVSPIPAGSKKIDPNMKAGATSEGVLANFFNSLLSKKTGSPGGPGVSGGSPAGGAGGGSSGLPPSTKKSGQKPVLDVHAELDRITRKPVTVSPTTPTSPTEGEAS
UniProt Q9Y295: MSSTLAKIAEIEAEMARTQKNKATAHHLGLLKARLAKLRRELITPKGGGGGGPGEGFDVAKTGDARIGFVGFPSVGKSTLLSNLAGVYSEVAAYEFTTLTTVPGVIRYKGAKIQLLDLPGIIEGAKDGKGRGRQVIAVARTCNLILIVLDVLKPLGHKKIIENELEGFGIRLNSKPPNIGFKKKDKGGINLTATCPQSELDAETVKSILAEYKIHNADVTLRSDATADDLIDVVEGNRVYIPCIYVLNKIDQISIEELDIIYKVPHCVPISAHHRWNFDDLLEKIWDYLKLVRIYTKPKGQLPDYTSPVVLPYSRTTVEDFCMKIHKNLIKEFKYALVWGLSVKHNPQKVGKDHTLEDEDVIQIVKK
UniProt P78344: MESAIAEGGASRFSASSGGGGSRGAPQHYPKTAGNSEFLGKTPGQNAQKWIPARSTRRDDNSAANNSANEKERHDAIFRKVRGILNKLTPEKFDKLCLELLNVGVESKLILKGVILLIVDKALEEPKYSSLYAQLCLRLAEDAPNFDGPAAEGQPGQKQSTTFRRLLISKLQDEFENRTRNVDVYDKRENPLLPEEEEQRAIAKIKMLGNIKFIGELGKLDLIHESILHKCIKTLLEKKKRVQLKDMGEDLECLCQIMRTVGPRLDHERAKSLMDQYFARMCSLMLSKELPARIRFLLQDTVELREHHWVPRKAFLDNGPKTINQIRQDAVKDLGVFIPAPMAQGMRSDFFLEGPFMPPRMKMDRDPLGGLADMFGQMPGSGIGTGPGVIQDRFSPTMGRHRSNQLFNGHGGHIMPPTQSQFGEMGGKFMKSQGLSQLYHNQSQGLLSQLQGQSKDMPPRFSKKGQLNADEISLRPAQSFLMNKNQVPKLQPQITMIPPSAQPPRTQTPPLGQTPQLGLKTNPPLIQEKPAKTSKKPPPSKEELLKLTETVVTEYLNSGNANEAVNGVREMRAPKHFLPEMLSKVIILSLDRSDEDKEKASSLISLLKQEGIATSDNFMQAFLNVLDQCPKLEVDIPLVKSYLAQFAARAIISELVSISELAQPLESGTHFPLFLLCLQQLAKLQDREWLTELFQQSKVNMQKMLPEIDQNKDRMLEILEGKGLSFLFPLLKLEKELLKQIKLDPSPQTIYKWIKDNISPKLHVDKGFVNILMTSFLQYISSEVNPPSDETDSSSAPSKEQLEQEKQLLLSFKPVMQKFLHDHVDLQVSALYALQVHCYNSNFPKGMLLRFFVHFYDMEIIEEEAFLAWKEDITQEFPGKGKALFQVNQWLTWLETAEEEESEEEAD
UniProt Q4LDG9: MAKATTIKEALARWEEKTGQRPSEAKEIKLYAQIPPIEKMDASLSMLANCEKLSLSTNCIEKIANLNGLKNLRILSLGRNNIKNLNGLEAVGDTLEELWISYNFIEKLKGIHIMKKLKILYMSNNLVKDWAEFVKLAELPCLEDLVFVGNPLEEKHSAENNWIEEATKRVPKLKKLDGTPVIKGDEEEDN
UniProt P68104, whole entry: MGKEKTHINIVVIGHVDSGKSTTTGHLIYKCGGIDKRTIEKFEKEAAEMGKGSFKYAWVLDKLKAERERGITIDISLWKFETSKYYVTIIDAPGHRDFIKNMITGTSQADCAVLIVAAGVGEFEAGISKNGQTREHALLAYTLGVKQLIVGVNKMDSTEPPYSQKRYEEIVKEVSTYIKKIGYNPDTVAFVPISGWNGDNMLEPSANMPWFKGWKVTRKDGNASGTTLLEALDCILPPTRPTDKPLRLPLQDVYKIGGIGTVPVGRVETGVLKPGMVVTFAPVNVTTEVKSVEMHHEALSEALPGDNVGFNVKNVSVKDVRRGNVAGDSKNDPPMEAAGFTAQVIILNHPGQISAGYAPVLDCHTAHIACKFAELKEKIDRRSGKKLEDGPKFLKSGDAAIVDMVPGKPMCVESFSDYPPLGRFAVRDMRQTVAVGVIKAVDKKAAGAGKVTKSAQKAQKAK
UniProt Q02413: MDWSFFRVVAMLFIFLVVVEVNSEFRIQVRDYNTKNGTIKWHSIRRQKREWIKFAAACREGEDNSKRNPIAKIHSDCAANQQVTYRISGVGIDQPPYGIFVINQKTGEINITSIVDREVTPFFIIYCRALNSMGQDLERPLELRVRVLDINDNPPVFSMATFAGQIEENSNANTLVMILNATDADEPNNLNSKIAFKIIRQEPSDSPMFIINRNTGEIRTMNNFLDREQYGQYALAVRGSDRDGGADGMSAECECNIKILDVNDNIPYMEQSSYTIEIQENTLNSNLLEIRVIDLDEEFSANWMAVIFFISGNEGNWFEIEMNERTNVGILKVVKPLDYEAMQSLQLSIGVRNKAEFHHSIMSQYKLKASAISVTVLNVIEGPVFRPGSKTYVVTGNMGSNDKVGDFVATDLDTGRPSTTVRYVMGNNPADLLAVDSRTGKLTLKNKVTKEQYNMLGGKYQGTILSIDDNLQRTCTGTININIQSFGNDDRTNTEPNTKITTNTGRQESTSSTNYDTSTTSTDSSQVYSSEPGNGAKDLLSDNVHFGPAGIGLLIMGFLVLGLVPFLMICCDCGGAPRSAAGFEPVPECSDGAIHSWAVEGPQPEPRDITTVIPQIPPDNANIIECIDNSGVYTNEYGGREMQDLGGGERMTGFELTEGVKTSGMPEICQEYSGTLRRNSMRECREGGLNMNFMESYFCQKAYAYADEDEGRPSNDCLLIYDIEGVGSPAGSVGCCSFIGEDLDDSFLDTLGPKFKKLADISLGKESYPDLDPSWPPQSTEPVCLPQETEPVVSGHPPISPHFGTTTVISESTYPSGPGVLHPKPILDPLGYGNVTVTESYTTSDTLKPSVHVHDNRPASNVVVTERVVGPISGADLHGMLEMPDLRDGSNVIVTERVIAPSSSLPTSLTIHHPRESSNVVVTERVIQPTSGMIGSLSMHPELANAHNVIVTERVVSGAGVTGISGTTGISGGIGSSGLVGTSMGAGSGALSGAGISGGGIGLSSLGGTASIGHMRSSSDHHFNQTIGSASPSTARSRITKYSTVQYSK
UniProt P17813: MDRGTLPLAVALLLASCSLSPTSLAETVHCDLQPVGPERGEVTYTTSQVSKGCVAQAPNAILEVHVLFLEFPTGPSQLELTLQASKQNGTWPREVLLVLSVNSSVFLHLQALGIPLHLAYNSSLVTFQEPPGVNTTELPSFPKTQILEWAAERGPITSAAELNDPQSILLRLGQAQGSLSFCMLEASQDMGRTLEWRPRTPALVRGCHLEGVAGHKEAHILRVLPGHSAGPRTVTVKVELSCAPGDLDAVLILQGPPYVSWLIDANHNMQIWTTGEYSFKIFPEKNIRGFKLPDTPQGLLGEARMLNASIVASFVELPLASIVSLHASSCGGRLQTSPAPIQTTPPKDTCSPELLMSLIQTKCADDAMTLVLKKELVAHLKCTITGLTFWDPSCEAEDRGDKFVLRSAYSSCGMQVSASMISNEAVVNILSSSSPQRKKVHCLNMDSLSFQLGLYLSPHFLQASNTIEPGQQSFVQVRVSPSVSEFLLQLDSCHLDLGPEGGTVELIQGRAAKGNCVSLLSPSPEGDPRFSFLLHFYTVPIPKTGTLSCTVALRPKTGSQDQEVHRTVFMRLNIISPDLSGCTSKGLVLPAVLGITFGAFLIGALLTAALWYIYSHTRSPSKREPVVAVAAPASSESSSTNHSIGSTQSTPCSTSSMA
UniProt P25685, whole entry: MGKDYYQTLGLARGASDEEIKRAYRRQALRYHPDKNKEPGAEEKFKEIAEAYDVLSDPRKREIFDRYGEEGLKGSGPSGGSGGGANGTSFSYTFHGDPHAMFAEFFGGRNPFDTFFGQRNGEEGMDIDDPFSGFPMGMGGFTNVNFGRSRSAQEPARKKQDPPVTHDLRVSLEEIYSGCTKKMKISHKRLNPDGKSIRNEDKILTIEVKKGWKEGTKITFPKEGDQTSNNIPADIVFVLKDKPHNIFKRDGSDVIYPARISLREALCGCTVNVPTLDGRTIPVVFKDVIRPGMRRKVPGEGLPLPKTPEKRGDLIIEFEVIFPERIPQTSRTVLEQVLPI
UniProt Q6PCB8: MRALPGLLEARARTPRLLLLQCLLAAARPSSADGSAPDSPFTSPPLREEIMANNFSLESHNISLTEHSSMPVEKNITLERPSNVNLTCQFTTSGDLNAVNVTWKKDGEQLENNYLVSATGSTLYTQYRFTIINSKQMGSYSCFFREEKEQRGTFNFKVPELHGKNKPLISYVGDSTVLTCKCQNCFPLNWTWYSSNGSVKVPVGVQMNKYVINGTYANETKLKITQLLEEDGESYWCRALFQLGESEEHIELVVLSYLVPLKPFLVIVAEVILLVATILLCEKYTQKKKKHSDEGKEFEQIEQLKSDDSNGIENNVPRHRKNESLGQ
UniProt P29692: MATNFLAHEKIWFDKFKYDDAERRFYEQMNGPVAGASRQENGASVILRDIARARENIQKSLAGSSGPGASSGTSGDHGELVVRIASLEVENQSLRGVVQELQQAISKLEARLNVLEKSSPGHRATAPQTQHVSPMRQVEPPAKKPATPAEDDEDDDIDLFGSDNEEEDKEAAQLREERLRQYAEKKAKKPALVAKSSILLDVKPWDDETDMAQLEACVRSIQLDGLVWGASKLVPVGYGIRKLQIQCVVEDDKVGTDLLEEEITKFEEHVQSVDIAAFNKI
UniProt O94905: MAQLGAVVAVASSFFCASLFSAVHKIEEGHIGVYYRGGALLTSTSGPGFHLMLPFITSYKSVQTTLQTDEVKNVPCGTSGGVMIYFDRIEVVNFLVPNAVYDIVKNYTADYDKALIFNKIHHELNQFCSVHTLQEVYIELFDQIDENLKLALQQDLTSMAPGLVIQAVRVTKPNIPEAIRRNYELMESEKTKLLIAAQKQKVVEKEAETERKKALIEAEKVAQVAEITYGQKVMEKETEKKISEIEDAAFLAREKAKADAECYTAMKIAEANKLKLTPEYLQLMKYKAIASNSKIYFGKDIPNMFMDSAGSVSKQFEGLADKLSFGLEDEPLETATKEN
UniProt Q96EB1: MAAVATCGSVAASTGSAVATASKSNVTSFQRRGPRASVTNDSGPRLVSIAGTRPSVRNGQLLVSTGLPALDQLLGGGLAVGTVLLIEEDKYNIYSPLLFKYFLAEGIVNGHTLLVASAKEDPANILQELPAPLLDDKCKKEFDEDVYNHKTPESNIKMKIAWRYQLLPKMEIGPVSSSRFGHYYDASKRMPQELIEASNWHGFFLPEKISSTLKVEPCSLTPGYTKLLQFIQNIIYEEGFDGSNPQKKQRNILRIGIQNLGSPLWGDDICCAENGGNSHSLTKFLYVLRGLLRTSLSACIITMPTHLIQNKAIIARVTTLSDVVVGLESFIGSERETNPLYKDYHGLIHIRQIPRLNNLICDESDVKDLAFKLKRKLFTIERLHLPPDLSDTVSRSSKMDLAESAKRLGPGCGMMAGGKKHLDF
UniProt Q96G46: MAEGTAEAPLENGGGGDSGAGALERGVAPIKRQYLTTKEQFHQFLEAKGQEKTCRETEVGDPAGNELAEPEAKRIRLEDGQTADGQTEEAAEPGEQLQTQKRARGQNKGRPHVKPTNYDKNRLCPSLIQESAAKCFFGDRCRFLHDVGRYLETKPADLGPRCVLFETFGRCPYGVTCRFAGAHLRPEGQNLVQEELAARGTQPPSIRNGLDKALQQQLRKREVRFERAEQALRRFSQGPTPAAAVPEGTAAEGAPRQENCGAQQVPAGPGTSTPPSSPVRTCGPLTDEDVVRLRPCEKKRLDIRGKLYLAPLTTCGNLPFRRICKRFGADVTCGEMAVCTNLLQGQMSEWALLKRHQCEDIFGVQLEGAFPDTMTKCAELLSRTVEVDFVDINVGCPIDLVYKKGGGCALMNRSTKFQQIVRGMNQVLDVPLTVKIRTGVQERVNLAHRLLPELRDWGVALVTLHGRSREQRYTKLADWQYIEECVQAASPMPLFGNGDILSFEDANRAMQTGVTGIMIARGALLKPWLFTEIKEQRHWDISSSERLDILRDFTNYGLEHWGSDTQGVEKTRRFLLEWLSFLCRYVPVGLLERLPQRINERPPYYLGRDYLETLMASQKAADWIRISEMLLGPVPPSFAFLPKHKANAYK

Compound: COc1ccc(Cn2ccc3ccc(C(=O)NO)cc32)cc1
Assay: dose-dependent thermal stabilisation call (2D-TPP, DLPTP, 10% FDR) (binary (1 = stabilised)); higher = stabilised by the compound
Details: system: HL-60 intact cells; concentration range 0.04-10 µM

| Target | dose-dependent thermal stabilisation call |
| --- | --- |
| DYNC1LI1 (UniProt Q9Y6G9) | inactive: 0 |
| DRG1 (UniProt Q9Y295) | inactive: 0 |
| ERAP2 (UniProt Q6P179) | inactive: 0 |
| EIF4G3 (UniProt O43432) | inactive: 0 |
| EIF6 (UniProt P56537) | inactive: 0 |
| EIF4G2 (UniProt P78344) | inactive: 0 |
| EPX (UniProt P11678) | inactive: 0 |
| DNAL1 (UniProt Q4LDG9) | inactive: 0 |
| DOCK10 (UniProt Q96BY6) | inactive: 0 |
| EEF1A1 (UniProt P68104) | inactive: 0 |
| DSG1 (UniProt Q02413) | inactive: 0 |
| DOCK7 (UniProt Q96N67) | inactive: 0 |
| DYNC1LI2 (UniProt O43237) | inactive: 0 |
| DLGAP5 (UniProt Q15398) | inactive: 0 |
| ENG (UniProt P17813) | inactive: 0 |
| DOK1 (UniProt Q99704) | inactive: 0 |
| DNAJB12 (UniProt Q9NXW2) | inactive: 0 |
| EP400 (UniProt Q96L91) | inactive: 0 |
| ECSIT (UniProt Q9BQ95) | inactive: 0 |

| Target | dose-dependent thermal stabilisation call |
| --- | --- |
| EEF2 (UniProt P13639) | inactive: 0 |
| DNAJB1 (UniProt P25685) | inactive: 0 |
| EMB (UniProt Q6PCB8) | inactive: 0 |
| DJ-1 | inactive: 0 |
| DSTN (UniProt P60981) | inactive: 0 |
| DTL (UniProt Q9NZJ0) | inactive: 0 |
| DNAJC13 (UniProt O75165) | inactive: 0 |
| DNAJB14 (UniProt Q8TBM8) | inactive: 0 |
| DUSP12 (UniProt Q9UNI6) | inactive: 0 |
| EML4 (UniProt Q9HC35) | inactive: 0 |
| EIF1AP1 | inactive: 0 |
| ENPP4 (UniProt Q9Y6X5) | inactive: 0 |
| EEF1D (UniProt P29692) | inactive: 0 |
| ERLIN2 (UniProt O94905) | inactive: 0 |
| ELP4 (UniProt Q96EB1) | inactive: 0 |
| ERGIC1 (UniProt Q969X5) | inactive: 0 |
| DUS3L (UniProt Q96G46) | inactive: 0 |
| DONSON (UniProt Q9NYP3) | inactive: 0 |
